Two molecules from article PMC9234046 can be followed below.

The chains behind the UniProt entries cited, without tags or fusion partners.
UniProt P16220: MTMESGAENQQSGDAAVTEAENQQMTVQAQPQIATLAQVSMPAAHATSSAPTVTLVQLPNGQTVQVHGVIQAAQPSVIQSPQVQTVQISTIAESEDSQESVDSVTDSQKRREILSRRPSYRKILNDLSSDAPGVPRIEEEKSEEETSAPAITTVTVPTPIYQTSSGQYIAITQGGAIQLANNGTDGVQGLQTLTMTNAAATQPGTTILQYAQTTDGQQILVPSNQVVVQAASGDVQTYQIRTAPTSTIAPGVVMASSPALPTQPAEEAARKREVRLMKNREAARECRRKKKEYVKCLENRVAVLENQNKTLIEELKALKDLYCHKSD

Like-named read-outs stand apart in the source and are kept apart here. Results are given in words; binding and its absence hold for the method and conditions named. Binding seen in cells or lysates may run through a third protein. Some entries that bind do so weakly or less than the wild type. Tags and fused reporters may be left off the sequences shown.

In assay [1] the target is T1, tuftelin 1 (TUFT1)-Flag (human) (UniProt Q9NNX1).
T1 sequence: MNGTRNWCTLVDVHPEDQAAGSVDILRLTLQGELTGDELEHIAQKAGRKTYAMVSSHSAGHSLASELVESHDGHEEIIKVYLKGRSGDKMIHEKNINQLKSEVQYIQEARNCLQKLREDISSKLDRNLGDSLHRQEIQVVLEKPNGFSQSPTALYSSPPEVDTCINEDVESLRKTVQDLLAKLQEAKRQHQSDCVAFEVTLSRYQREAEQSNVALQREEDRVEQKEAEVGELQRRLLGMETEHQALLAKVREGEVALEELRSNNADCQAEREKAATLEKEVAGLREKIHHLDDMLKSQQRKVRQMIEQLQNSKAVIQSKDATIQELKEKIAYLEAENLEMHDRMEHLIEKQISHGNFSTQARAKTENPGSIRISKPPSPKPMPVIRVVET
In words: co-IP; anti-Flag antibody crosslinked to magnetic beads, lysate of TUFT1-Flag-overexpressing Huh7 cells, 1 hour at 4°C, PBS washes, western blot.

Assay [2] has as its target T1, tuftelin 1 (TUFT1)-Flag (human). The description is as above. This is another data set of the same source.

“Cyclic AMP-responsive element binding protein 1 (CREB1) (from UniProt P16220 1-327)”: the binding result in assay [1] is “binds”.

B1: zyxin (ZYX) (protein, UniProt Q15942 1-572)
chain: MAAPRPSPAISVSVSAPAFYAPQKKFGPVVAPKPKVNPFRPGDSEPPPAPGAQRAQMGRVGEIPPPPPEDFPLPPPPLAGDGDDAEGALGGAFPPPPPPIEESFPPAPLEEEIFPSPPPPPEEEGGPEAPIPPPPQPREKVSSIDLEIDSLSSLLDDMTKNDPFKARVSSGYVPPPVATPFSSKSSTKPAAGGTAPLPPWKSPSSSQPLPQVPAPAQSQTQFHVQPQPQPKPQVQLHVQSQTQPVSLANTQPRGPPASSPAPAPKFSPVTPKFTPVASKFSPGAPGGSGSQPNQKLGHPEALSAGTGSPQPPSFTYAQQREKPRVQEKQHPVPPPAQNQNQVRSPGAPGPLTLKEVEELEQLTQQLMQDMEHPQRQNVAVNELCGRCHQPLARAQPAVRALGQLFHIACFTCHQCAQQLQGQQFYSLEGAPYCEGCYTDTLEKCNTCGEPITDRMLRATGKAYHPHCFTCVVCARPLEGTSFIVDQANRPHCVPDYHKQYAPRCSVCSEPIMPEPGRDETVRVVALDKNFHMKCYKCEDCGKPLSIEADDNGCFPLDGHVLCRKCHTARAQT
As to B1, the binding result in assay [2] was “binds”.
